Experimental data as given in patent publication US20160046678A1 (ZYNGENIA, published 2016).
No constants are given. Whether binding was seen depends on the method and setting. Some entries that bind do so weakly or less than the wild type.

Target: ErbB2 (UniProt P04626)
Assay: MRD identification, Example 48

Binder	binding
WSGWCFYQVEYIWRSCEPAS [EGB428]	binds
NRSGCIEIHYEDCLLIV [EGB429]	binds
WTGWCYMEHFWDICHGPA [EGB430]	binds
WTGYCLSSERHKWHHCFGRS [EGB431]	binds
WSGWCFQFDNWDRCPGSV [EGB432]	binds
WSGYCQMKDHWAHCGHSE [EGB433]	binds
WSGWCLFADGWGHCYGVI [EGB435]	binds
WSGWCFIKTHWGHCYGQI [EGB436]	binds
WSGWCFYVDHWDYCGGLI [EGB437]	binds
WSGYCEGTDHWYHCGGSM [EGB438]	binds
WSGWCFYGDRWGHCSGLP [EGB439]	binds
WSGWCFYGSYWGHCKGIL [EGB440]	binds
WSGYCEFEDHWDYCGTPK [EGB441]	binds
WSGWCLMETGWGHCKGLP [EGB442]	binds
WSGWCFSADGWGHCRGVI [EGB444]	binds
WSGYCDMGDHWSHCGHSG [EGB445]	binds
WSGWCFYGSWWDYCSGGH [EGB446]	binds
WSGYCEFEDHWDFCGTSR [EGB447]	binds
WSGYCEYQDRWAHCGGTPGQAGQGGGSWSGYCRTEGHWAHCGGSV [EGB448]	binds
WSGWCLGEAGWGHCRGLL [EGB450]	binds
WSGWCLYESGWGHCYGWI [EGB451]	binds
WSGYCEYKYKWDHCGTSV [EGB452]	binds
WSGYCEFKDHWAHCGGSL [EGB453]	binds

Binder	binding
WSGWCLGETGWGHCSGMP [EGB455]	binds
WSGYCEFKDHWAHCGGSV [EGB456]	binds
WSGYCEFQDHWGYCGNTE [EGB458]	binds
WSGYCEFKDYWAHCSGSM [EGB459]	binds
WSGYCEYSDHWAHCGGSL [EGB460]	binds
WSGWCLYDAGWGYCSGLQ [EGB462]	binds
WSGYCEMQDHWDYCSGSI [EGB463]	binds
WSGWCFTEGVWGHCKGLG [EGB464]	binds
WSGYCEFKDHWDFCGHSA [EGB465]	binds
WSGWCFLDSGWGHCQGLI [EGB469]	binds
WSGWCFNSNGWYQCGGLI [EGB470]	binds
WSGWCFFGASWGHCSGFP [EGB471]	binds
WSGWCFFGAGWDYCHGQP [EGB472]	binds
WSGYCEFKDHWDYCGGSE [EGB473]	binds
WSGWCFYGTGWGYCYGLI [EGB474]	binds
WSGYCEYKHHWAHCGTRH [EGB476]	binds
WSGYCLMKDHWAHCGHSE [EGB477]	binds
WSGWCMGMSGWDHCRGLI [EGB478]	binds
WSGYCEINGKWDYCSHSH [EGB479]	binds
WSGWCFFGAGWGHCFGNP [EGB480]	binds
WSGWCLQGAGWGHCSGRI [EGB481]	binds
WSGWCFNGVGWGHCFGLI [EGB482]	binds
WSGWCFYEAFWGHCTGPT [EGB483]	binds

Binder	binding
WSGWCFDGDGWGYCTGVS [EGB484]	binds
WSGWCLRSNGWDYCHGPT [EGB485]	binds
WSGWCLSGAGWGYCSGLP [EGB486]	binds
WSGWCFFGSAWGHCHGFP [EGB487]	binds
WSGWCFYSTHWAQCKGGH [EGB488]	binds
WSGWCETDRGWSFCSSPL [EGB489]	binds
WSGWCESELQWGFCSGLL [EGB490]	binds
WSGWCEGETQWYFCSGHL [EGB491]	binds
WSGWCEYELQWSFCSGQL [EGB492]	binds
WSGWCEGEREWFFCSGHI [EGB493]	binds
WSGWCEYEHHWDFCSGHL [EGB494]	binds
LPPPCYWTTWGKECQMFD [EGB495]	binds
WSGWCFSSSGWGFCGGLN [EGB496]	binds
WSGWCFSPAGWGHCYGLS [EGB497]	binds
WSGWCLDRAGWGHCHGLI [EGB498]	binds
WSGWCLTKSGWGHCLGPT [EGB499]	binds
WSGWCLYEFGWGYCSGLI [EGB500]	binds
WSGWCEYELHWSYCWGPL [EGB501]	binds
WSGWCEGELYWSYCSGYL [EGB502]	binds
WSGWCEYELSWSFCSGSL [EGB503]	binds
WSGWCEYEGFWSFCSGNL [EGB504]	binds
WSGWCEGVLQWYFCSGHI [EGB505]	binds
WSGWCEYDLHWSFCSGHL [EGB506]	binds
